Results: PubChem BioAssay AID1347076 (National Center for Advancing Translational Sciences (NCATS), 2019)
The campaign covered roughly 400,000 compounds. About 13,000 (3.2%) were called active. The inconclusive results got no clear call from the source; some entries with a clear call stand among them for comparison. Calls follow the shape of the dose curve; as a rule, active = well fitted cell-killing curve with a large enough effect; inconclusive = small, poorly fitted or top-dose-only effect, or effect the other way; inactive = flat fitted curve, though single readings scatter. A potency beside an inconclusive call is a rough fit, not a confirmed value.

Assay: qHTS assay for MDR1-selective chemotherapeutics: Primary screen using the drug-selected MDR subline cells KB-V1; also: nearly all actives have a fitted effect of over 60% in size
Settings: KB-V1 MDR cells viability, CellTiter-Glo, 72 h; activity change, negative = cytotoxicity: at 46.1 µM (top of the series)
Procedure, shortened: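 KB-V1 cells (P-gp-expressing MDR subline of KB-3-1) in phenol-red-free DMEM with 10% FBS were exposed to library compounds over a concentration series for 72 h at 37 degrees C. Viability read by CellTiter-Glo luminescence; concentration-effect curves fitted after normalization.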
% is scaled to controls: 0 for no effect and ±100 for the full control effect; potency is read from the fitted curve at half-maximal effect.

Compound | Potency | activity change, negative = cytotoxicity
Cc1[nH]c2ccccc2c1/C=C/c1nc2ccccc2c(=O)n1-c1cccc([N+](=O)[O-])c1 | inconclusive: 7.31 µM [cytotoxic, partial curve, poor fit] | 
CCOC1=C2[C@H](c3ccccc3)N(S(=O)(=O)c3ccc(C)cc3)C(C(C)(C)C)[C@H]2C(C#N)(C#N)C(C#N)(C#N)C1 (some centres undefined) | inactive | 
Cc1ccc(S(=O)(=O)N2CCN(c3nc(C)c4c(c3C#N)CC(C)(C)OC4)CC2)cc1 | inconclusive: 9.2 µM [cytotoxic, partial curve, poor fit] | 
COc1ccc(-c2cc(C(=O)N3CCCc4ccccc43)no2)cc1 | active: 14.6 µM | 
COc1ccc2[nH]cc(CCn3ccc(O)c(C/C=C/c4ccccc4)c3=O)c2c1 | inconclusive: 23.1 µM [cytotoxic, single point] | 
CC(NC(=O)CN1c2cccc3cccc(c23)S1(=O)=O)c1ccccc1 (centres undefined) | inconclusive: 18.4 µM [cytotoxic, single point] | 
Brc1ccc(-n2cc(-c3ccccc3)c3c(NN4CCOCC4)ncnc32)cc1 | inactive | 
COc1ccc(CN(C)C(=O)CC(c2ccccc2)c2ccccc2)cc1 | inactive | 
C=CCNc1nc(C(=O)OC(C)C(=O)c2ccc(C)cc2)cs1 (centres undefined) | inactive | 
CCNC(=O)C[C@@H]1CC[C@@H]2NC[C@@H](O)COC[C@H]2O1 | inactive | 
Cn1c(-c2ccc(F)cc2)cnc1NCc1ccc(C#N)cc1 | active: 20.6 µM | 
C=CCOc1ccc2c(c1)C(=NO)c1cc(OCC=C)ccc1-2 | inconclusive: 29.1 µM [cytotoxic, single point] | 
Cc1ccc(/C=N/NC(=O)c2sccc2OCc2ccc(F)cc2)cc1 | inconclusive: 3.66 µM [cytotoxic, full curve, poor fit] | 
CS(=O)(=O)c1ccc(C(=O)OCC(=O)N2CCCC2)cc1[N+](=O)[O-] | inactive | 
O=C(CSC1=NS(=O)(=O)c2cc(F)ccc2N1)Nc1ccccc1 | inconclusive: 10.3 µM [rising, partial curve, poor fit] | 
CCCN(CC1CC1)C(=S)Nc1ccc(Oc2ccccc2)cc1 | inconclusive: 29.1 µM [cytotoxic, single point] | 
O=C(N/N=C/c1ccc(Br)s1)c1ccco1 | inactive | 
COc1ccc(-c2noc(CN(C)S(=O)(=O)c3ccc(Cl)cc3)n2)cc1OC | active: 7.31 µM | 
Cc1ccc(Nc2nc(-c3c(C)nc4ccccn34)cs2)cc1 | active: 0.164 µM | 
CCCOc1ccc(CN(CCC#N)C(=S)NC(=O)c2ccccc2)cc1 | inconclusive: 20.6 µM [cytotoxic, single point] | 
Cc1ccc(S(=O)(=O)N2CCCCC2)cc1NC(=O)COC(=O)c1ccccc1F |  | inconclusive: -9.51%
COc1ccccc1-c1csc(C(O)c2ccccc2)n1 (centres undefined) | inconclusive: 29.1 µM [cytotoxic, partial curve, poor fit] | 

Compound | Potency | activity change, negative = cytotoxicity
O=C(CCc1nnc(CCCCc2ccccc2)o1)NCCCc1cccnc1 | inconclusive: 29.1 µM [cytotoxic, single point] | 
Cc1ccc(C)c(NC(=O)NCc2ccccn2)c1 | inconclusive: 16.4 µM [rising, partial curve] | 
CCc1ccc(NC(=O)c2cc(C)nn2-c2ccccc2)cc1 | inconclusive: 29.1 µM [cytotoxic, single point] | 
NC(=O)c1cccc(-c2ccnc3c2CC(C(=O)Nc2cccc(Oc4ccccc4)c2)O3)c1 (centres undefined) | inconclusive: 23.1 µM [cytotoxic, single point] | 
O=[N+]([O-])c1c(Nc2ccccc2O)cc(Cl)c2nonc12 | inconclusive: 9.2 µM [cytotoxic, partial curve, poor fit] | 
Cc1ccc(C(C)C)c2oc(=O)cc(-c3ccc(-c4ccc(C(F)(F)F)cc4)cc3)c12 | inconclusive: 29.1 µM [rising, single point] | 
COc1ccc(C2c3cc4c(cc3OC(N3CCOCC3)C2C)OCO4)c(OC)c1 (centres undefined) | inconclusive: 20.6 µM [cytotoxic, single point] | 
CCc1cc2c3c(c(=O)oc2cc1OC)CCCC3 | inconclusive: 20.6 µM [cytotoxic, single point] | 
CCCCCCCCN1C(=O)[C@H](CC(=O)NCCCC)C[C@@]2(C(=O)OC)CCCCC=C12 | inconclusive: 11.6 µM [cytotoxic, partial curve] | 
CCOC(=O)c1c(NC(=O)c2cc3ccccc3c(=O)o2)sc2c1CCC(C(C)(C)C)C2 (centres undefined) | inactive | 
CC(C)CC(c1nnnn1C1CCCC1)N1CCN(C(=O)c2ccco2)CC1 (centres undefined) | inconclusive: 5.8 µM [cytotoxic, partial curve, poor fit] | 
O=C(NC1CCCC1)c1cc(S(=O)(=O)N2CCCC2)ccc1Cl | inconclusive: 29.1 µM [cytotoxic, single point] | 
CN(C)c1cc[n+](CC(=O)Nc2ccc(OC(F)F)cc2)cc1 | inactive | 
CCOC(=O)c1c(C)[nH]c(C)c1S(=O)(=O)NCC1CCN(Cc2ccccc2OC)CC1 | inconclusive: 29.1 µM [rising, single point] | 
CCC(C)c1ccc(S(=O)(=O)N2CCN(c3ccccn3)CC2)cc1 (centres undefined) | inconclusive: 11.6 µM [cytotoxic, partial curve] | 
O=[N+]([O-])c1cc(-c2n[nH]c(-c3ccccc3)n2)cc([N+](=O)[O-])c1 | inconclusive: 18.4 µM [cytotoxic, partial curve, poor fit] | 
Cc1cccc(NC(=O)Nc2c(C)n(C)n(-c3ccccc3)c2=O)c1 | inconclusive: 32.6 µM [rising, single point] | 
CSc1c(C#N)c(N)c(C#N)c2c1COC(C)(C)C2 | inconclusive: 23.1 µM [cytotoxic, partial curve] | 
CCOC(=O)CCCCC(=O)c1[nH]c(=O)[nH]c1Cn1cnc2ccccc21 | inactive | 
O=C(O)CCn1ccc2cc(S(=O)(=O)N3CCCCC3)ccc21 | inactive | 
Cc1cccc(NC2=C(NC(=O)c3ccccc3)C(=O)c3ccccc3C2=O)c1 | active: 14.6 µM | 
CCC(Cc1ccccc1)NC(=O)Cn1ncc2c3ccccc3n(Cc3ccc(F)cc3)c2c1=O (centres undefined) |  | inconclusive: -45.2% [cytotoxic]

One compound at a time, as listed above.
CCC(Cc1ccccc1)NC(=O)Cn1ncc2c3ccccc3n(Cc3ccc(F)cc3)c2c1=O (centres undefined) is listed as activity change, negative = cytotoxicity: inconclusive: -45.2% [cytotoxic]
Cc1cccc(NC(=O)Nc2c(C)n(C)n(-c3ccccc3)c2=O)c1 is listed as Potency: inconclusive: 32.6 µM [rising, single point]
O=C(NC1CCCC1)c1cc(S(=O)(=O)N2CCCC2)ccc1Cl is listed as Potency: inconclusive: 29.1 µM [cytotoxic, single point]
